No constants are given. Whether binding was seen depends on the method and setting. Some results given as binding are weak or reduced against the parent protein; the word gives no strength.
Biological target: BAG6 on the surface of extracellular vesicles derived from human melanoma cells (D04mel) (human) (UniProt P46379)
Experiment: flow cytometry of EVs bound to microbeads, NKp30-fc detected with Cy3 anti-human fc

Chains of the proteins cited; added tags and fusions are not shown. Residues count along the entry.
UniProt P46379: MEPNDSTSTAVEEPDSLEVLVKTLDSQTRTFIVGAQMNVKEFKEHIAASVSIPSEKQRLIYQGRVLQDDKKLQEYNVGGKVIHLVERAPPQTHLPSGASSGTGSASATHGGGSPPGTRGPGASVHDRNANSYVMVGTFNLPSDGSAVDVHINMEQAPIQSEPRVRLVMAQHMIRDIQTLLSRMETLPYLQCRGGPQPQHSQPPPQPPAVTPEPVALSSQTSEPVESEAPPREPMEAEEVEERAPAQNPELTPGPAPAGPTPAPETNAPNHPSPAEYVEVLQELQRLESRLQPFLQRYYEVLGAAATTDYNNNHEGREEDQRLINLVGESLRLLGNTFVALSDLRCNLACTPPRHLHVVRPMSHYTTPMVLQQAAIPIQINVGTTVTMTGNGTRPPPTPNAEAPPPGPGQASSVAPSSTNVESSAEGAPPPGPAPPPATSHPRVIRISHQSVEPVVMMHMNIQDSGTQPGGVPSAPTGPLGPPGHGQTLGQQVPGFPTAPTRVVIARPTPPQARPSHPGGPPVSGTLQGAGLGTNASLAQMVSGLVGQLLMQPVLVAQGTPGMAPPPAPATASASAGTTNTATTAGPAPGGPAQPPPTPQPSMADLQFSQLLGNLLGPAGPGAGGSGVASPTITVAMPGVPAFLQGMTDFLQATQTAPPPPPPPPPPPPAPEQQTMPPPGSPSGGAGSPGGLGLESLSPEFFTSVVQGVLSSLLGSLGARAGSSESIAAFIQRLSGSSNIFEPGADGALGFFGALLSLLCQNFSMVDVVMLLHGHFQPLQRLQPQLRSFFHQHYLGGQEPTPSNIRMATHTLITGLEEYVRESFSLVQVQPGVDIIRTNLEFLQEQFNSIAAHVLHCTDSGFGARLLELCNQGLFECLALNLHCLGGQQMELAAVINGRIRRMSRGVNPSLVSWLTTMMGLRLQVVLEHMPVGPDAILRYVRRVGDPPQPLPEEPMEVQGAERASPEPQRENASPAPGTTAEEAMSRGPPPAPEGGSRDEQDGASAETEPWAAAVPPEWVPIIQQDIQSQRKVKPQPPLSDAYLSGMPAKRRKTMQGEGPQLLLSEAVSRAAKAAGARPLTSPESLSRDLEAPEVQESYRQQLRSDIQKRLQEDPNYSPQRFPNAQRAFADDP
UniProt O14931, residues 19-135: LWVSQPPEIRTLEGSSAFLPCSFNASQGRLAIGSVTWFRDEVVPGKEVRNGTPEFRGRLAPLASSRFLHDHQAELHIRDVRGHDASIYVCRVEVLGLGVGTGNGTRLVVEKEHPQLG

binding: binds
Substance: recombinant NKp30-fc fusion protein (from UniProt O14931 19-135)

Reference: patent publication US20190030072A1
